In patent publication EP4843985A1, “TRIAZOLOPYRIMIDINE DERIVATIVE, PREPARATION METHOD THEREFOR AND USE THEREOF” (dated 2026):
The structures given here were assigned with low confidence; some may be wrong.

Amino acid sequences for entries named in this document (tags omitted).
UniProt O75469, whole entry: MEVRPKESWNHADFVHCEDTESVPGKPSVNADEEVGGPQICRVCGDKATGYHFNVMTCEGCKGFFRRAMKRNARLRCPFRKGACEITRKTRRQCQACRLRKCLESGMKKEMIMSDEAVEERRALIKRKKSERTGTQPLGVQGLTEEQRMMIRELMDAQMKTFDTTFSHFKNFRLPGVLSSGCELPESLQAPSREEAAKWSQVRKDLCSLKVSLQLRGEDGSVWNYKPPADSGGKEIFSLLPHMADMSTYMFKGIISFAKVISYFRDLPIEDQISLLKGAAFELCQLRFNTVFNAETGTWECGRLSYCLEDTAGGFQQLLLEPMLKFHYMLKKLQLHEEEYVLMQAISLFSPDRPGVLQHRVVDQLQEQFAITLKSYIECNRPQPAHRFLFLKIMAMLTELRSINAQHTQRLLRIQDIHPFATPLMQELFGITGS

How the values were obtained:
[1] = Plasma protein binding rate (equilibrium dialysis), human; details: 5 µM, 6 hours dialysis
Description: The purpose of this test was to evaluate the protein binding rate of the test drug in plasma of human, monkey, dog, rat and mouse using the equilibrium dialysis method.
Plasma (EDTA-K2 anticoagulated) was stored in a -80°C freezer. Stop solution, acetonitrile (containing 100 nM alprazolam, 200 nM caffeine, and 100 nM tolbutamide as internal standards).
The test article and the control compound ketoconazole were prepared as high-concentration DMSO stock solutions and diluted to 1 mM working solution, with a final test concentration of 5 µM.
NaH2PO4 (12.0 g) and NaCl (8.77 g) were weighed and dissolved in 1 L of water to prepare an alkaline solution. Na2HPO4 (14.2 g) and NaCl (8.77 g) were weighed and dissolved in 1 L of water to prepare an acidic solution. The alkaline solution and the acidic solution were titrated to pH 7.4.
The temperatures of the water bath and incubator were pre-adjusted to 37°C. The plasma was removed from -80°C, rapidly thawed in a 37°C water bath, and centrifuged at 2000 g for 5 minutes at room temperature. The clot was removed, and the supernatant was transferred to a new centrifuge tube. The pH of the plasma was tested and recorded. (Note: a. Only plasma with a pH range of 7.2-7.8 was used. b. Only plasma that had been thawed no more than twice after receipt was used.)
The equilibrium dialysis membrane was soaked in pure water for 60 minutes, then in 20% ethanol for 20 minutes, and finally in dialysis buffer for 20 minutes. The soaked dialysis membrane was then spread flat on a clean HTDialysis clamping device, and the dialysis device was assembled according to the product manual.
3 µL of the working solution of the test drug and the control drug was taken and added to 597 µL of pre-incubated plasma, and mixed thoroughly. The final organic solvent content in the incubation system was 0.5%. […]
All data calculations were performed using Microsoft Excel software. The concentrations of the drug in free samples and plasma samples were determined. […]

[2] = molecular target: PXR (Homo sapiens, UniProt O75469); assay: PXR activation in stably transfected DPX2 cells (luciferase reporter); details: at 10 µM
Description: The purpose of this study was to evaluate the potential of the test article to activate PXR in vitro and thereby induce drug-metabolizing enzymes.
DPX2 cells (HepG2 cell line stably transfected with PXR and a luciferase-linked CYP3A4 promoter reporter gene) were purchased from Puracyp Inc (Carlsbad, CA); fetal bovine serum was purchased from Acantor.
• 1) DPX2 cells were cultured using a culture medium containing 10% fetal bovine serum (FBS). • 2) DPX2 cells were cultured in T-75 culture flask in a cell culture incubator at 37°C, 5% CO2, and 95% relative humidity. […] After 24 or 48 hours of cell treatment, quantitative determination of PXR activation was performed. • 8) The CellTiter Fluor™ cell viability assay kit and the One-Glo luciferase assay kit were brought to room temperature. […] 25 µL of the prepared cell viability assay system was gently added to each well, and then the plate was incubated at 37°C in the cell culture incubator for 30 minutes. • 10) The 384-well plate was removed from the cell culture incubator, and the fluorescence value of each well was read using a microplate reader in fluorescence mode with excitation at 400 nm and emission at 505 nm. […] After incubation with vortex shaking at room temperature for 5 minutes, the luminescence value of each well was read using a microplate reader. […]

Bound percentage [1]: 97.47
Free percentage [1]: 2.53
Recovery rate [1]: 94.6%
Fold activation [2]: 1.44
SMILES: [2H]C1([2H])CCC(c2nc3n4c(c(N5CCN(C(=O)c6ncnc(C)c6O)[C@H]6CC[C@@H]65)c(=O)n3n2)[C@H](C)C[C@@H]4C(=O)Nc2scc(C(F)(F)F)c2C)=CCO1
